Measured values as given in patent publication EP3708171A1, “TREATMENT OF VITAMIN D DEFICIENCY WITH 25(OH) VITAMIN D IN CRITICALLY ILL PATIENTS” (Bouillon, Roger, priority 2019, dated 2020).

Test: Randomized, placebo-controlled pilot study of IV 25OHD supplementation in critically ill (ICU) patients; serum vitamin D metabolites and DBP (Example 1)
Assay type: in vivo
Experimental: The study was performed in accordance with the 1964 Declaration of Helsinki and its later amendments. The protocol and consent forms were approved by the institutional review board of the University Hospitals Leuven (ML2462). The study was registered at www.controlled-trials.com (ISRCTN24385496). Patients with an anticipated stay in the intensive care unit (ICU) of more than 10 days were eligible for inclusion in the study. Patients younger than 18 years, those suffering from chronic bone or kidney disease, and those who were treated with glucocorticoids before ICU admission were excluded. […]
The effect of IV 25OHD supplementation on vitamin D status (25OHD, 1,25(OH)2D, 24,25(OH)2D) was studied. […] All patients were followed up and monitored for possible adverse events beyond the intervention period of 10 days until discharge or death. […]
Every day at 06.00 a.m., from ICU admission until ICU discharge or death, undiluted blood samples were taken through an arterial line that had been placed for clinical purposes. […] Concentrations of 25OHD, 1,25(OH)2D, and 24,25(OH)2D were measured in serum.
25OHD was measured by competitive binding assay; 1,25(OH)2D by radioimmunoassay (RIA), and DBP by radial immunodiffusion, as previously reported by Bouillon et al (J Clin Invest 1981 67 589-596). […]

## C=C1CC[C@H](O)C/C1=C/C=C1\CCC[C@]2(C)[C@@H]([C@H](C)CCCC(C)(C)O)CC[C@@H]12 [25OHD, 25-hydroxyvitamin D]
IV 200 µg loading dose, then 15 µg/day for 10 days
  DBP concentrations: unaffected by the treatment
Upon 25OHD supplementation
  Molar ratios of 1,25(OH)2D to DBP: only transiently rose
